Results as given in patent publication US20130253011A1, “INSECTICIDAL COMPOUNDS” (SYNGENTA PARTICIPATIONS AG, priority 2010, published 2013).
Some entries share one result that the patent states for a list of compounds.

Experiments:
Format in all cases: in vivo
[1] = system: Tetranychus urticae (Two-spotted spider mite); assay: Tetranychus urticae bean leaf disc spray test; settings: 200 ppm sprayed on bean leaf discs; mite populations of mixed ages; egg, larval and adult mortality 8 days later
[2] = system: Spodoptera littoralis (Egyptian cotton leafworm); assay: Spodoptera littoralis leaf disc spray test; settings: 200 ppm sprayed on cotton leaf discs; 5 L1 larvae; mortality, feeding behaviour, growth regulation 3 DAT
[3] = system: Heliothis virescens (Tobacco budworm); assay: Heliothis virescens egg test on artificial diet; settings: 200 ppm (concentration in well 18 pm) by pipetting; eggs 0 to 24 h old on artificial diet; egg mortality, larval mortality, growth regulation after 4 days
[4] = system: Diabrotica balteata (Corn root worm); assay: Diabrotica balteata larval test on artificial diet; settings: 200 ppm (concentration in well 18 ppm) on artificial diet; L2 larvae; larval mortality, growth regulation after 5 days
[5] = system: Plutella xylostella (Diamond back moth); assay: Plutella xylostella larval test on artificial diet; settings: 200 ppm (concentration in well 18 ppm) on artificial diet; L2 larvae; larval mortality, growth regulation after 6 days
[6] = system: Myzus persicae (Green peach aphid); assay: Myzus persicae sunflower leaf disc spray test; settings: 200 ppm sprayed on sunflower leaf discs; aphid population of mixed ages; mortality after 6 DAT
[7] = system: Thrips tabaci (Onion thrips); assay: Thrips tabaci sunflower leaf disc spray test; settings: 200 ppm sprayed on sunflower leaf discs; population of mixed ages; mortality after 7 days

Cc1cc(C#N)ccc1C(=O)Nc1cc(-c2cn(-c3c(C(F)(F)F)c(C(F)(F)C(F)(F)F)nn3C)nn2)ccc1C#N [Compound A1, 4-Cyano-N-{2-cyano-5-[1-(2-methyl-5-pentafluoroethyl-4-trifluoromethyl-2H-pyrazol-3-yl)-1H-[1,2,3]triazol-4-yl]-phenyl}-2-methyl-benzamide]
at least 80%: control of Tetranychus urticae [1] | control of Spodoptera littoralis [2] | control of Heliothis virescens [3] | control of Diabrotica balteata [4] | control of Plutella xylostella [5]

Cn1nc(C(F)(F)C(F)(F)F)c(C(F)(F)F)c1-n1cc(-c2cccc(NC(=O)c3ccncc3)c2F)nn1 [Compound A128, N-{2-Fluoro-3-[1-(2-methyl-5-pentafluoroethyl-4-trifluoromethyl-2H-pyrazol-3-yl)-1H-[1,2,3]triazol-4-yl]-phenyl}-isonicotinamide]
at least 80%: control of Tetranychus urticae [1] | control of Myzus persicae [6] | control of Spodoptera littoralis [2] | control of Heliothis virescens [3] | control of Thrips tabaci [7] | control of Diabrotica balteata [4] | control of Plutella xylostella [5]

COc1c(NC(=O)c2c(F)cc(F)cc2F)cccc1-c1cn(-c2c(C(F)(F)F)c(C(F)(F)C(F)(F)F)nn2C)nn1 [Compound A144, 2,4,6-Trifluoro-N-{2-methoxy-3-[1-(2-methyl-5-pentafluoroethyl-4-trifluoromethyl-2H-pyrazol-3-yl)-1H-[1,2,3]triazol-4-yl]-phenyl}-benzamide]
at least 80%: control of Tetranychus urticae [1] | control of Spodoptera littoralis [2] | control of Heliothis virescens [3] | control of Diabrotica balteata [4] | control of Plutella xylostella [5]
